This is one part of the list. Further columns of the screen follow, without active or inactive calls. Most of these compounds were active or inconclusive in the main read-out, so they are no random draw. Words in brackets tell the shape of the fitted curve; partial curves, single points and poor fits give uncertain potencies.

The nature of the assay: qHTS Assay to Find Inhibitors of Chronic Active B-Cell Receptor Signaling. To be noted: ABC-DLBCL IkBa-CBG/CBR reporter, luminescence ratio (green luciferase fused to IkBa over red control in TMD8 lymphoma cells), 4 h. In outline:
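Cell line TMD8 (human ABC DLBCL), stably expressing tet-inducible CBG68-IkBa fusion and CBR; IMDM/0.5% FBS; cpd up to 46 uM; dox induction, 4 h, 37C/5% CO2; dual luminescence; green/red ratio; MG132 control.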
For orientation: Quantitative high-throughput screening tests each substance at several concentrations.

Where [1] appears, read: measured here: CBR red luminescence, cell number.
Where [2] appears, read: measured here: IkBa-CBG green luminescence.

As for `c1ccc(-c2nnc(CN3CCN(C(c4ccccc4)c4ccccc4)CC3)o2)cc1`, the AC50 under setting [1] was 3.16 µM [falling, partial curve]. On the same count and under the same terms, in the case of `CC(C)NC(=O)C(OC(=O)c1ccccc1)C(OC(=O)c1ccccc1)C(=O)O` (configuration not stated) it was 0.355 µM [falling, full curve, poor fit]; in that of `O=c1oc(-c2cccs2)nc2sc3c(c12)CCCCC3`, 0.282 µM [falling, full curve].

Consider `COc1cc(OC)cc(-c2nc3ccccc3c(=O)n2NC(=O)c2cccnc2Cl)c1`, for which, under setting [1], the AC50 was 20.6 µM [rising, partial curve, poor fit]. For `CCCn1nc(NC(=O)c2cccs2)c2cc3ccccc3nc21`, the AC50 under setting [1] is 15.8 µM [falling, partial curve, poor fit]. As to `Nc1ccc(-c2nc3nc(N)nc(N)c3nc2-c2ccc(N)cc2)cc1`, under setting [1], the AC50 is 35.5 µM [falling, single point]. On the same count and under the same terms, in the case of `COc1cc(C(=O)Nc2ccc(C(=O)O)cc2)ccc1OC(C)=O` it was 12.6 µM [falling, partial curve, poor fit]; in that of `N#Cc1c(NC(=O)C2CCCO2)sc2c1CCCCC2` (configuration not stated), 11.2 µM [rising, partial curve, poor fit].

As to `O=c1cc(CSc2nc3ccccc3c(=O)[nH]2)c2ccc(O)cc2o1`, the AC50 under setting [1] was 35.5 µM [falling, single point].

Turning to `COc1cc(NC(=O)CSc2nc3[nH]ncc3c(=O)n2-c2ccccc2C)cc(OC)c1OC`, the AC50 under setting [2] was 20.6 µM [falling, partial curve, poor fit].

Consider `CC1(c2ccc(Cl)cc2Cl)NC(=O)N(CC(=O)NC2CCCCC2)C1=O` (configuration not stated), for which, under setting [1], the AC50 was 1.16 µM [rising, partial curve].

Turning to `Cc1nc2ccccc2c(=O)n1CCN1CCOCC1`, the AC50 under setting [1] is 0.58 µM [falling, full curve, poor fit]. Turning to `COCCNC(C)C(=O)C12CC3CC(CC(C3)C1)C2` (configuration not stated), the AC50 under setting [1] is 0.731 µM [rising, full curve, poor fit]. With `COC(=O)CSc1nc(C)c2ccc(OC)cc2n1`, the AC50 under setting [1] was 5.17 µM [rising, full curve, poor fit].

For the molecule `Cc1ccc(C(=O)NNC(=O)c2ccccc2O)cc1S(=O)(=O)N1CCCCC1`, under setting [1], the AC50 was 16.4 µM [falling, single point].

On to `O=C(CSc1nc2c([nH]c3ccccc32)c(=O)n1-c1ccc(F)cc1)NCc1ccco1`, for which the AC50 under setting [1] is 6.51 µM [falling, partial curve, poor fit]. Turning to `O=C(N/N=C1\C/C(=N\NC(=O)c2ccncc2)c2ccccc21)c1ccncc1`, the AC50 under setting [1] is 35.5 µM [falling, single point].

For `Cc1nc2ccccc2c(=O)n1CCCO`, the concentration at half-maximal activity (AC50) under setting [1] is 6.31 µM [falling, single point]. As for `Cc1ccsc1C(=O)OCC(=O)Nc1ccc(Cl)cn1`, under setting [1], the AC50 was 0.0651 µM [rising, full curve, poor fit]. Turning to `Clc1ccc2[nH]c(-c3ccccc3)cc2c1`, the AC50 under setting [1] was 0.282 µM [rising, full curve, poor fit]. As to `COc1ccc2ccc3c(c2c1)N=C[C@]1(O3)N(C)c2ccccc2C1(C)C`, the AC50 under setting [1] was 14.1 µM [falling, partial curve, poor fit]. For `CSc1ccccc1-c1nnc(-c2ccccc2)o1`, the AC50 under setting [1] is 7.31 µM [falling, partial curve, poor fit]. As for `CCC/C(=N/NC(=O)c1cccc(Cl)c1)c1ccccc1`, under setting [1], the AC50 is 16.4 µM [falling, partial curve, poor fit]. As to `O=C(Nc1ccc2nsnc2c1)NC1CCCCC1`, the AC50 under setting [1] was 20.6 µM [falling, single point]. With `COc1ccccc1N(/N=C1\Sc2ccccc2C1=O)C(C)=O`, the AC50 under setting [1] is 22.4 µM [falling, partial curve, poor fit]. For `CCC(=O)Nc1ccc(OCc2nc3ccccc3s2)cc1`, the AC50 under setting [1] was 0.708 µM [falling, full curve, poor fit].

As to `CCc1ccc(C2N3CC4([N+](=O)[O-])CN2CC([N+](=O)[O-])(C3)C4(C)C)cc1` (configuration not stated), the AC50 under setting [1] is 32.6 µM [rising, single point]. For the molecule `C[C@]12CCC(=O)C=C1CC[C@@H]1[C@@H]2C(=O)C[C@@]2(C)[C@H]1CC[C@]2(O)C(=O)CO`, the AC50 under setting [1] was 0.141 µM [rising, full curve, poor fit].

Turning to `COC(=O)c1ccc(CN(Cc2ccc(OC)c(OC)c2)S(=O)(=O)c2ccc(F)c(C(=O)Nc3cc(C)ccc3C)c2)cc1`, the AC50 under setting [1] was 0.708 µM [rising, partial curve, poor fit].

In the case of `O=C(Nc1ccc2nn(-c3ccccc3)nc2c1)c1ccc2c(c1)OCCO2`, the AC50 under setting [1] was 11.2 µM [falling, partial curve, poor fit].

Consider `COc1ccccc1NC(=O)C(=O)N/N=C/c1cccs1`, for which, under setting [1], the AC50 is 0.0366 µM [falling, full curve]. On the same count and under the same terms, next, `COc1ccccc1CNN`: 11.2 µM [falling, partial curve]. For the molecule `COc1ccc(NC(=O)C(=O)c2cn(CC(=O)N3CCCC3)c3ccccc23)c(OC)c1`, the AC50 under setting [1] was 0.708 µM [falling, full curve, poor fit]. `CCOc1ccc(N2C(=O)CSC23CCCCC3)cc1`: under setting [1], the half-maximal activity concentration (AC50) is 11.2 µM [falling, partial curve, poor fit].

As to `O=C(Nc1ccc(F)cc1)c1ccc2snnc2c1`, the AC50 under setting [1] was 8.91 µM [falling, partial curve, poor fit]. For `Brc1ccc(-c2nn[nH]n2)cc1`, under setting [1], the AC50 was 10 µM [rising, partial curve].

Regarding `CN(/N=C/c1ccc([N+](=O)[O-])o1)c1ccccc1`, the AC50 under setting [1] is 14.1 µM [rising, partial curve, poor fit]. Same read-out and setting: in the case of `CNC(=O)c1c(NC(=O)CS(=O)(=O)c2ccc(Cl)cc2)sc(C)c1C` it was 3.26 µM [falling, single point]; in that of `CC(C)NC(=O)N(C)C[C@H]1Oc2ccc(NC(=O)Nc3ccc(C(F)(F)F)cc3)cc2C(=O)N([C@H](C)CO)C[C@@H]1C`, 18.4 µM [rising, single point]; in that of `O=C(NNC(=S)NC(=O)c1ccc(Br)cc1)c1ccc([N+](=O)[O-])cc1`, 12.6 µM [rising, partial curve, poor fit].

In the case of `COc1ccc(OCc2n(CC(=O)OC3CC(C)CCC3C(C)C)c3ccccc3[n+]2C)cc1` (configuration not stated), the AC50 by setting is: under setting [1], 15.8 µM [falling, single point]; under setting [2], 35.5 µM [rising, partial curve, poor fit].

One may read the AC50 as the concentration giving half of the maximal activity seen.
